Screening data, single-dose tests

Protein sequences, listed by entry. Tags and fused reporters are not part of them. Residues count along the entry.
UniProt Q8IDJ8, 1-583: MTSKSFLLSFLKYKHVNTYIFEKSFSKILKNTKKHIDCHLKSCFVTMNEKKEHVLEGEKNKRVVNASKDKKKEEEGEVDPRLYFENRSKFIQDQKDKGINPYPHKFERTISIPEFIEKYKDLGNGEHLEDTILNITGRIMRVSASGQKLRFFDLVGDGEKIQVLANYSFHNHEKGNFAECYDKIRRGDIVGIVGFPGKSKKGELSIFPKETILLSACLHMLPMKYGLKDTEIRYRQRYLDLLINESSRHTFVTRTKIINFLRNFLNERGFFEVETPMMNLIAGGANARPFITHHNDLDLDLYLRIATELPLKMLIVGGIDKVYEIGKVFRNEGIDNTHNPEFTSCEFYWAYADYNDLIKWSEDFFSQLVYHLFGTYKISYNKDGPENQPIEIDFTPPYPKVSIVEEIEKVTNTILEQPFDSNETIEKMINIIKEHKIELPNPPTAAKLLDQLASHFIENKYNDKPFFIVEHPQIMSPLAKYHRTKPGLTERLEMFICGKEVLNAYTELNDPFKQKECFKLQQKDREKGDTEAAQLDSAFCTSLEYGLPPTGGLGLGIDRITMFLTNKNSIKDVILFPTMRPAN
UniProt A4I591, 1-473: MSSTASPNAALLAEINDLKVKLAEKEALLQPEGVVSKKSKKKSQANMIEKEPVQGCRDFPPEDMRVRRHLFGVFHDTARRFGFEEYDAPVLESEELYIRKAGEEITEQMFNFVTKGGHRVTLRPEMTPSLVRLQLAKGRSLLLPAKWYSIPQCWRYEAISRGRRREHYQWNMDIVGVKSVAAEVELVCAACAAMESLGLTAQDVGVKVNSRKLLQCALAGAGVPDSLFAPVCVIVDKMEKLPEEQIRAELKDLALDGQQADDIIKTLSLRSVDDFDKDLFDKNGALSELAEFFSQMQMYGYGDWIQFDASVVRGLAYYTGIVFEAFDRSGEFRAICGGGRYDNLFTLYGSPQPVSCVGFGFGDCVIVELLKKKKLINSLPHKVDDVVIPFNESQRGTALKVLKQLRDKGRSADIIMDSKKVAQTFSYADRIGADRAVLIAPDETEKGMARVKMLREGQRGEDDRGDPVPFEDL

Leishmania in macrophages: 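Cell assay of Leishmania donovani living inside macrophages; the read-out is not stated. Compounds at 30 µM. Higher reads as stronger inhibition (inferred: compounds with an IC50 in retests scored well above the rest). Size under these conditions: about 69,000 compounds, about 1,000 of them at 50% or above in at least one test.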
PfKRS1: 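Enzyme assay of the cytosolic lysyl-tRNA synthetase in 384-well plates, read by luminescence. Target: Lysine-tRNA ligase, Plasmodium falciparum 3D7 (UniProt Q8IDJ8). Compounds at 30 µM. Higher reads as stronger inhibition, judged from the few compounds that gave an IC50. About 69,000 compounds were tested under these conditions; 0.071% (about 49) showed 50% or more at least once.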
LiHisRS: 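Enzyme assay of histidyl-tRNA synthetase; the read-out is not stated. Target: Histidine-tRNA ligase, Leishmania infantum (UniProt A4I591). Compounds at 30 µM. Direction is inferred from retests: higher values go with stronger inhibition. The assay is labelled LdHisRS but filed under L. infantum. Of about 69,000 compounds tested this way, about 410 (0.6%) reached 50% or more in at least one test.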

Values are the deposited “Percent Effect”, in %. The record does not define 0% and 100%; most values in the screen are far below 50% and negative numbers occur (in some assays of this library far below -100). This is an unselected part of the compounds tested. Two or more numbers in one place are separate tests of the same structure; such repeats can differ widely. A dash means the value is not listed here; it may have been measured.

| # | compound | Leishmania in macrophages | PfKRS1 | LiHisRS |
|---|---|---|---|---|
| 1 | `CCOc1ccc(N(C)Cc2nnc(C)o2)cc1` | -59.1% | 5.424% | 35.62% |
| 2 | `CCn1c(C)cc(C(=O)N2C[C@@H](C(=O)O)[C@H](c3ccccc3C)C2)c1C` | 14.71% | 5.489% | 25.81% |
| 3 | `O=C(c1cc[nH]n1)N1CCC(c2cc(Nc3ccccn3)n[nH]2)CC1` | 6.823% | -0.1367% | 10.34% |
| 4 | `Cc1cc(C)n(-c2ccc(C(=O)NCC(c3cccs3)N(C)C)cc2)n1` (centres undefined) | -6.051% | 2.439% | 8.861% |
| 5 | `COCCN1CCCC2(CCC(=O)N2Cc2cccnc2)C1` (centres undefined) | - | 0.04599% | 13.46% |
| 6 | `CN(C)CC1CN(Cc2csc(C3CCCC3)n2)CCO1` (centres undefined) | 25.44% | 2.681% | 16.67% |
| 7 | `[H][C@@]12CCN(C3CCCC3)C[C@]1(C(=O)N1CCOCC1)CCO2` | 2.879% | - | - |
| 8 | `COCC(=O)N1C[C@@H](c2cccc(OC)c2)[C@@]2(CCCCC(=O)N2)C1` | 22.42% | 0.3004% | 11.35% |
| 9 | `O=S(=O)(Cc1ccc(F)c(Cl)c1)NC(CO)c1ccco1` (centres undefined) | -4.823% | 3.014% | 0.8772% |
| 10 | `CN1CCC2(Cc3ccccc3CN(C(=O)Cc3cccc(Cl)c3)C2)C1` (centres undefined) | 48.76% | -2.428% | 16.55% |
| 11 | `Cc1nc(CNC(=O)Nc2c(C)n[nH]c2C)cs1` | 4.245% | 2.751% | 4.145% |
| 12 | `COc1c(C)cc(CNCc2ccnc(N3CCOCC3)c2)cc1C.Cl` | 54.99% | - | - |
| 13 | `CCN(C(=O)Cc1ccc(NCc2nccn2C)cc1)c1ccccc1` | 1.029% | 1.699% | 1.408% |
| 14 | `CC(C)Cc1noc(C2CCN(C(=O)c3cccs3)CC2)n1` | -47.2% | -18.86% | 7.08% |
| 15 | `O=C(NCC1CC1)Nc1cnc2ccc(F)cc2c1O` | -7.158% | 6.391% | 15.62% |
| 16 | `O=C(O)C(F)(F)F.O=C(O)C(F)(F)F.c1ccc(NCc2cnc3n2CCN(CC2CCOC2)CC3)nc1` (centres undefined) | 15.61% | - | - |
| 17 | `CS(=O)(=O)NC[C@H]1OC[C@@H]2CCN(CCc3ccccc3)C[C@@H]21` | - | 0.7181% | 1.887% |
| 18 | `NC(=O)c1cc(C2CCCN(CCOc3cccc(F)c3)C2)n[nH]1` (centres undefined) | 8.853% | -0.6224% | 12.04% |
| 19 | `[H][C@]12CC[C@@]3(N=C(CC)NC3=O)[C@@]1([H])CN(C(=O)NCc1ccccc1C)C2` | 9.246% | - | - |
| 20 | `CNc1nc2c(c(C(=O)N3CCCC3)n1)CN(C(=O)CCSC)CC2` | 13.45% | 2.008% | 15.96% |
| 21 | `O=C(NCCS(=O)(=O)N1CCN(c2ncccn2)CC1)C1CC1` | -8.451% | 3.733% | 28% |
| 22 | `CN(C)C(=O)[C@@H]1CCO[C@@H]2CCN(c3ncccn3)C[C@H]21` | - | 4.148% | 8.333% |
| 23 | `CCCC(=O)N1CCCCC1c1nccc(C)n1` (centres undefined) | 2.522% | -0.251% | 8% |
| 24 | `Cc1cc(C(=O)N[C@H](C)c2onc(-c3cccnc3)c2C(=O)O)c(C)o1` | - | 6.985% | 16.22% |
| 25 | `CCC(C)Sc1nncn1-c1ccc(OC)nc1` (centres undefined) | 9.994% | 4.506% | 8.036% |
| 26 | `Cc1nc(CN2CCCN(C(=O)c3c(C)oc(C)c3C)CC2)cs1` | 14.11% | -2.411% | 7.965% |
| 27 | `CC(C)=CCN1C[C@H]2CC[C@@H]1CN(C(=O)CCc1n[nH]c(C)n1)C2` | - | 2.76% | -42.5% |
| 28 | `Cn1ccc(C(=O)N2CCN(CC(O)C(C)(C)C)CC2)cc1=O` (centres undefined) | -12% | 2.334% | 16.52% |
| 29 | `c1ccc(COc2ccccc2NC2CCOCC2)nc1` | 18.46% | 2.437% | 18.31% |
| 30 | `Cc1occc1C(=O)N1CC[C@H]2C[C@@H](c3nnc(C4CC4)o3)O[C@@H]2C1` | - | 2.41% | 0.9091% |
| 31 | `CCC(C)NC(=O)c1ccccc1-n1cnnn1` (centres undefined) | 20.7% | 4.338% | 18.45% |
| 32 | `CCc1nnc(CS(=O)(=O)c2ccc(C)cc2)n1C` | 10.39% | -1.376% | 3.333% |
| 33 | `CCS(=O)(=O)N1CCO[C@H]2[C@H](OCCCn3cccn3)CC[C@@H]21` | - | 4.77% | 3.774% |
| 34 | `C[C@@H]1CN(CCOCc2ccccc2)CC[C@@]1(O)C1CCC1` | -44.72% | -6.594% | -7.5% |
| 35 | `COCCN1CCO[C@@H]2CN(C(=O)COc3ccc(C)cc3)C[C@@H]2C1` | - | 3.356% | 10.34% |
| 36 | `O=C(O)C(F)(F)F.O=C(O)C(F)(F)F.[H][C@@]12OCCN(Cc3csc(C)n3)[C@@]1([H])CC[C@@H]2OCc1cccnc1` | 38.34% | - | - |
| 37 | `O=C(C1CCS(=O)(=O)CC1)N1C[C@H]2CC[C@@H]1CN(Cc1ccccc1)C2` | - | -4.586% | -2.151% |
| 38 | `CNC(=O)C1CN(C(=O)c2ccccc2)Cc2cn(C)nc21` (centres undefined) | -19.04% | -1.698% | 9.859% |
| 39 | `Cc1nc(CCNC(=O)NC2CCCc3c2cnn3CCO)cs1` (centres undefined) | 6.062% | 6.77% | 18.75% |
| 40 | `CC(=O)N1CC[C@H]2OCC[C@@H](C(=O)Nc3cccnc3C)[C@@H]2C1` | - | 4.475% | 17.31% |
| 41 | `CN(C)CC(=O)N1CCCC1c1cncc(Oc2ccc(F)cc2)n1` (centres undefined) | 7.476% & -18.72% | -1.457% | -2.062% |
| 42 | `CCc1ccc(CN(C)Cc2cnc(S(=O)(=O)CC)n2CCOC)cc1` | 25.47% | -2.365% | 5.6% |
| 43 | `CC1CCN(CC(=O)N(C)CCc2noc(C3CC3)n2)C1=O` (centres undefined) | 26.42% | 1.581% | 6.667% |
| 44 | `Cc1ccc(N2CCC3(CCN(Cc4ccccn4)CC3)CC2)nn1` | 23% | 3.65% | -2.632% |
| 45 | `CC(C)(C)n1ncc2c1NC(=O)CC2c1ccccc1` (centres undefined) | 18.83% | 2.413% | 19.05% |
| 46 | `Cc1cc(C(=O)N2CCCC(c3nncn3C)C2)no1` (centres undefined) | -0.9538% | 1.345% | 11.9% |
| 47 | `CCCNC(=O)c1nn(CC)cc1NC(=O)C(C)n1ncc(Cl)c1C` (centres undefined) | 6.017% | -1.519% | 6.195% |
| 48 | `COc1ccnc(N2CCN(CC(O)CN3CCOCC3)CC2)n1` (centres undefined) | 33.81% | 0.2646% | 7.895% |
| 49 | `CN1CCN(C(=O)c2ccc3c(c2)nc(N2CCOCC2)n3C)CC1=O` | -14.26% | 6.709% | 3.704% |
| 50 | `CCCS(=O)(=O)N1CCC2(CN(c3ccsc3)C(=O)CN2C)C1.O=C(O)C(F)(F)F` (centres undefined) | 0.5229% | - | - |
| 51 | `COC(CNC(=O)c1cn(C)nn1)c1ccccc1C` (centres undefined) | 23.21% | -0.8426% | 3.39% |
| 52 | `[H][C@@]12CCN(C[C@@H]1CN1CCc3ccccc31)[C@@H](CNC(=O)COC)C2` | 16.79% | - | - |
| 53 | `CCOC(=O)C1CN(S(=O)(=O)C2CC2)Cc2ncn(CC)c21` (centres undefined) | 19.93% | 4.034% | 8% |
| 54 | `CCn1nc(C)c(C(=O)NCc2csc(C3CC3)n2)c1C` | 19.77% | 3.606% | 25.84% |
| 55 | `O=C(c1cc(-c2ccccc2)nc2onc(C3CC3)c12)N1CC[C@H](O)C1` | -5.043% | -1.124% | 6.667% |
| 56 | `CC(O)(CNc1ccc(Cl)c(C#N)n1)c1ccccc1` (centres undefined) | -2.581% | 8.488% | 13.54% |
| 57 | `Cc1cc(C)n(C2CN(CCC(N)=O)C2)n1` | 22.21% | 5.17% | 27.06% |
| 58 | `O=C([C@@H]1COC[C@H]2CN(C3CCCC3)C[C@H]21)N1CCCO1` | - | 7.968% | 22.22% |
| 59 | `CN(C)c1nccc(C2CN(c3ccccc3)CCO2)n1` (centres undefined) | 28.36% | -0.2094% | 6.711% |
| 60 | `NC(=O)c1cccc(CCNCc2cnc(-c3cccs3)s2)c1` | 8.667% | 3.796% | 8.772% |
| 61 | `CCCc1n[nH]c(=O)n1Cc1ccc(OC)cc1` | -22.23% | -6.155% | -1.333% |
| 62 | `CCS(=O)(=O)CCSc1cccc(C#N)c1` | 17.58% | -2.168% | 0% |
| 63 | `CCN1Cc2nc(OC)c(CNC(=O)C3CCCN(C)C3)cc2C1=O` (centres undefined) | -32.94% | 4.505% | 5.319% |
| 64 | `N#Cc1cccc(C(=O)N2CCCC(O)(CO)CC2)c1` (centres undefined) | -4.309% | 2.726% | 9.836% |

Repeated from the top, 5 entries:

{"compound": "CCOc1ccc(N(C)Cc2nnc(C)o2)cc1", "Leishmania in macrophages": -59.1, "PfKRS1": 5.424, "LiHisRS": 35.62}
{"compound": "CCn1c(C)cc(C(=O)N2C[C@@H](C(=O)O)[C@H](c3ccccc3C)C2)c1C", "Leishmania in macrophages": 14.71, "PfKRS1": 5.489, "LiHisRS": 25.81}
{"compound": "O=C(c1cc[nH]n1)N1CCC(c2cc(Nc3ccccn3)n[nH]2)CC1", "Leishmania in macrophages": 6.823, "PfKRS1": -0.1367, "LiHisRS": 10.34}
{"compound": "Cc1cc(C)n(-c2ccc(C(=O)NCC(c3cccs3)N(C)C)cc2)n1", "stereo": "centres undefined", "Leishmania in macrophages": -6.051, "PfKRS1": 2.439, "LiHisRS": 8.861}
{"compound": "COCCN1CCCC2(CCC(=O)N2Cc2cccnc2)C1", "stereo": "centres undefined", "PfKRS1": 0.04599, "LiHisRS": 13.46}

The values are deposited in ChEMBL (CHEMBL3988442, “University of Dundee, Small-Polar-MMV Screening Library” (2021)).